In US10064928B2, “Peptides and combination of peptides for use in immunotherapy against CLL and other cancers” (IMMATICS BIOTECHNOLOGIES GMBH, priority 2015, dated 2018):

Columns and labels:
[1] = system: CLL samples compared to a panel of normal tissues; assay: Identification and label-free relative LC-MS quantitation of HLA-presented peptides (presentation profiles and scores); parameters: species or system human; key: very highly over-presented on tumors compared to a panel of normal tissues (+++); highly over-presented on tumors compared to a panel of normal tissues (++); over-presented on tumors compared to a panel of normal tissues (+); conditions: presentation score; over-presentation on tumors (CLL samples) compared to a panel of normal tissues
[2] = system: other tumor types (e.g. non-Hodgkin lymphoma, lung cancer); assay: Presentation of the peptides on additional tumor types (LC-MS, Tables 4A/4B, FIG. 1); parameters: species or system human; conditions: for Other relevant organs/diseases: Table 4A: additional tumor types where the peptide was over-presented on more than 5% of the measured tumor samples, or presented on more than 5% with ratio of geometric means tumor vs normal tissues larger than 3; for Additional Entities: Table 4B: additional tumour types with over-presentation (including specific presentation) on more than 5% of the measured tumour samples, or presentation on more than 5% with ratio of geometric means tumour vs normal tissues larger than 3, extended normal tissue panel

385 (YTIPLAIKL; listed as Homo sapiens) [compound 385]
Peptide Presentation [1]: +++ | Other relevant organs/diseases [2]: NHL, AML, BRCA, Esophageal Cancer | Additional Entities [2]: CRC

51 (FLVEAPHDWDL; listed as Homo sapiens) [compound 51]
Peptide Presentation [1]: ++ | Additional Entities [2]: Uterine Cancer

305 (LLFPQIEGIKI; listed as Homo sapiens) [compound 305]
Peptide Presentation [1]: + | Other relevant organs/diseases [2]: NHL, Melanoma | Additional Entities [2]: Urinary Bladder Cancer, HNSCC

154 (SLLAELHVLTV; listed as Homo sapiens) [compound 154]
Peptide Presentation [1]: ++ | Other relevant organs/diseases [2]: NHL

82 (GLQSGVDIGV; listed as Homo sapiens) [compound 82]
Peptide Presentation [1]: + | Other relevant organs/diseases [2]: NHL | Additional Entities [2]: AML, Esophageal Cancer, PC

254 (QLIPKLIFL; listed as Homo sapiens) [compound 254]
Peptide Presentation [1]: +++ | Other relevant organs/diseases [2]: NHL, Melanoma

276 (VLNDGAPNV; listed as Homo sapiens) [compound 276]
Peptide Presentation [1]: + | Other relevant organs/diseases [2]: NSCLC, SCLC, NHL, Melanoma, Uterine Cancer, Gallbladder Cancer, Bile Duct Cancer

56 (FVFEAPYTL; listed as Homo sapiens) [compound 56]
Peptide Presentation [1]: +++ | Other relevant organs/diseases [2]: NHL, AML

190 (VVMGTVPRL; listed as Homo sapiens) [compound 190]
Peptide Presentation [1]: +++ | Other relevant organs/diseases [2]: NHL, AML | Additional Entities [2]: Melanoma

241 (ILGDILLKV; listed as Homo sapiens) [compound 241]
Peptide Presentation [1]: + | Other relevant organs/diseases [2]: AML

22 (ALWDPVIEL; listed as Homo sapiens) [compound 22]
Peptide Presentation [1]: +++ | Other relevant organs/diseases [2]: NHL

339 (GLWGTVVNI; listed as Homo sapiens) [compound 339]
Peptide Presentation [1]: + | Other relevant organs/diseases [2]: NHL, AML, Melanoma, Uterine Cancer | Additional Entities [2]: HNSCC

334 (YLLEEKIASL; listed as Homo sapiens) [compound 334]
Peptide Presentation [1]: +++ | Other relevant organs/diseases [2]: NHL | Additional Entities [2]: AML

112 (KTLDVDATYEI; listed as Homo sapiens) [compound 112]
Peptide Presentation [1]: +++ | Other relevant organs/diseases [2]: HCC, NHL, Melanoma, Esophageal Cancer, OC | Additional Entities [2]: Uterine Cancer

194 (YLDNVLAEL; listed as Homo sapiens) [compound 194]
Peptide Presentation [1]: + | Other relevant organs/diseases [2]: NHL

69 (GLHQREIFL; listed as Homo sapiens) [compound 69]
Peptide Presentation [1]: +++ | Other relevant organs/diseases [2]: NHL

347 (YLGPVSPSL; listed as Homo sapiens) [compound 347]
Peptide Presentation [1]: + | Other relevant organs/diseases [2]: NHL

10 (FVYGESVEL; listed as Homo sapiens) [compound 10]
Peptide Presentation [1]: +++ | Other relevant organs/diseases [2]: NHL

169 (TLLLGLTEV; listed as Homo sapiens) [compound 169]
Peptide Presentation [1]: +++ | Other relevant organs/diseases [2]: NHL, Melanoma

52 (FLVETGFLHV; listed as Homo sapiens) [compound 52]
Peptide Presentation [1]: +++ | Other relevant organs/diseases [2]: Melanoma

49 (FLTDLFAQL; listed as Homo sapiens) [compound 49]
Peptide Presentation [1]: + | Additional Entities [2]: NHL, Melanoma

78 (GLPSFLTEV; listed as Homo sapiens) [compound 78]
Peptide Presentation [1]: +++ | Other relevant organs/diseases [2]: HCC, NHL, AML, Melanoma

35 (FILPSSLYL; listed as Homo sapiens) [compound 35]
Peptide Presentation [1]: +++ | Other relevant organs/diseases [2]: RCC, NHL, AML, Gallbladder Cancer, Bile Duct Cancer | Additional Entities [2]: SCLC, Uterine Cancer
